# Among all 400,000 compounds or so, about 13,000 (3.2%) were called active. Inconclusive means that the source gave no clear call. Such entries were picked first, then a sample of the others. The call rests on the fitted dose curve; in most records, active means well fitted cell-killing curve with a large enough effect; inconclusive means small, poorly fitted or top-dose-only effect, or effect the other way; inactive means flat fitted curve, though single readings scatter. A potency beside an inconclusive call is a rough fit, not a confirmed value.
# Test: qHTS assay for MDR1-selective chemotherapeutics: Primary screen using the drug-selected MDR subline cells KB-V1; further: nearly all actives have a fitted effect of over 60% in size
# Conditions: KB-V1 MDR cells viability, CellTiter-Glo, 72 h; activity change, negative = cytotoxicity: at 46.1 µM (top of the series)
# Procedure, shortened: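 Potencies derive from concentration-effect curves fitted to normalized luminescence (CellTiter-Glo) of KB-V1 cells treated for 72 h at 37 degrees C in phenol-red-free DMEM containing 10% FBS.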
# On the % scale 0 is the no-effect control and ±100 the full control effect; potency means the concentration at half of the fitted maximal effect.
SMILES,Potency,"activity change, negative = cytotoxicity"
c1ccc2sc(SCc3ccc(-c4nnco4)cc3)nc2c1,"inconclusive: 18.4 µM [cytotoxic, partial curve, poor fit]",
Cc1cc(C)nc(SC2CC(=O)N(c3ccc(C)c(C)c3)C2=O)n1 (stereo unspecified),"inconclusive: 20.6 µM [cytotoxic, single point]",
COc1ccc(-c2oc3ncn4nc(-c5ccccc5O)nc4c3c2-c2ccc(OC)cc2)cc1,,inactive: 20.6%
COc1ccc(-c2cc(-c3ccc(F)cc3)nc3c2COc2ccc(F)cc2-3)cc1,"inconclusive: 18.4 µM [rising, single point]",
CCC1CCC2(CC1)NC(=O)N(CC(=O)Nc1ccc(OC)c(Cl)c1)C2=O (stereo unspecified),,inactive: -21.8%
CC(=O)/C(=C/Nc1ccc(Oc2ccccc2)cc1)c1ccccc1,"inconclusive: 18.4 µM [cytotoxic, single point]",
COc1ccc(C2CC(c3ccc(Cl)cc3Cl)n3nc(N)nc3N2)cc1 (stereo unspecified),"inconclusive: 13 µM [rising, partial curve, poor fit]",
Cc1cc(/C=C(\C#N)c2nc3ccccc3[nH]2)c(C)n1C,active: 5.17 µM,
Cc1ccc(C)c(S(=O)(=O)N2CCCCC2CCNC(=O)C(=O)NC2CC2)c1 (stereo unspecified),"inconclusive: 8.2 µM [cytotoxic, partial curve]",
Cc1ccc(OCC(=O)Nc2cccc(-c3nc4ccccc4s3)c2)cc1,,inactive: -9.87%
CCCC1NC(=O)c2cc3ccccc3cc2-n2c1nc1ccc(C)cc1c2=O (stereo unspecified),"inconclusive: 16.4 µM [cytotoxic, single point]",
O=C(NCCN1CCN(Cc2ccccc2)CC1)c1ccc(CS(=O)(=O)c2ccc(Br)cc2)o1,"inconclusive: 14.6 µM [cytotoxic, single point]",
O=C(Nc1cccc(S(=O)(=O)N2CCCCC2)c1)c1ccccc1NS(=O)(=O)c1ccc(F)cc1,active: 20.6 µM,
Cc1ccc(C(=O)c2coc3ccc(O)c(CN4CCN(C)CC4)c23)cc1,,inactive: -26.7%
CC(C)=NNc1nc2c(c(=O)n(C)c(=O)n2C)n1CCc1ccccc1,,inactive: 2.7%
CCOC(=O)C1(N(CC)CC)Sc2cc(C)ccc2NC1=O (stereo unspecified),active: 10.3 µM,
COc1cccc(CNC(=O)c2sc3nc(C)cc(C)c3c2-n2cccc2)c1OC,"inconclusive: 25.9 µM [cytotoxic, single point]",
COC(=O)COc1ccc(=O)n(-c2ccccc2)n1,"inconclusive: 18.4 µM [rising, partial curve, poor fit]",
Cc1ccc(-c2c3c(nc4sc(C(N)=O)c(N)c24)CCC3)cc1,"inconclusive: 18.4 µM [cytotoxic, partial curve]",
COc1ccc(-c2nc(CS(=O)CC(=O)NCCCN3CCCC(C)C3)c(C)o2)cc1OC (stereo unspecified),,inconclusive: 31.1%
CSc1nc2nc(C)c(CCC(=O)OCC(=O)Nc3ccc(F)cc3)c(C)n2n1,"inconclusive: 14.6 µM [rising, partial curve]",
CCOc1ccc(NC(=O)C2CC(=O)NC(=Nc3ccc(Cl)c(Cl)c3)S2)cc1 (stereo unspecified),,inactive: 13.7%
O=C(CSc1ccccc1)NCCSCc1ccccc1,"inconclusive: 18.4 µM [cytotoxic, single point]",

SMILES,Potency,"activity change, negative = cytotoxicity"
CCN(c1cccc(C)c1)S(=O)(=O)c1ccc2c(c1)CCN2C(C)=O,active: 23.1 µM,
Cc1ccc(CSC2=Nc3ccccc3C3=NC(CCC(=O)NCc4ccco4)C(=O)N23)cc1 (stereo unspecified),,inactive: -16.2%
Cc1cc(C(=O)CSc2nnc(N)s2)c(C)n1Cc1cccs1,active: 23.1 µM,
COc1ccc(C(=O)N[C@H](C(=O)NCc2ccccc2)C(C)C)cc1,,inactive: 0%
Cn1c(CNC(=O)CNC(=O)Cc2ccc(Cl)cc2)cc(=O)n(C)c1=O,"inconclusive: 14.6 µM [rising, partial curve]",
O=[N+]([O-])c1ccc(NN=Cc2cccc(O)c2)nc1,,inactive: 5.44%
CCC(=O)N1CCN(c2nc(CC)nc3sc4c(c23)CCCC4)CC1,"inconclusive: 23.1 µM [cytotoxic, single point]",
CN(C)C(=O)CCc1nc2sc3c(c2c(=O)[nH]1)CCCC3,"inconclusive: 13 µM [cytotoxic, partial curve]",
CC(=O)Nc1ccc(NC(=O)Cc2ccc(-c3ccccc3)cc2)cc1,,inactive: 4.26%
O=C(NC1(O)C(=O)c2ccccc2C1=O)c1c(Cl)cccc1Cl,"inconclusive: 2.31 µM [rising, full curve]",
O=C1C=CC(=O)c2c(O)c(N3CCN(CCOCCO)CC3)c(Br)c(O)c21,active: 4.11 µM,
COc1ccc(NC(=O)CCCNC(=O)c2ccc(Cl)cc2)cc1OC,"inconclusive: 8.2 µM [rising, partial curve]",
Cc1cc(C)c(NC(=O)COC(=O)c2cccc3c2C(=O)c2ccccc2C3=O)c(C)c1,"inconclusive: 14.6 µM [cytotoxic, partial curve, poor fit]",
Cc1cccc(C(=O)NNC(=O)C23CC4CC(CC(C4)C2)C3)c1O,"inconclusive: 9.2 µM [cytotoxic, partial curve]",
Cc1ccc(-c2n[nH]c3c2C(c2ccc(C(C)(C)C)cc2)NC3=O)cc1 (stereo unspecified),,inactive: -23.8%
Cc1nn(S(=O)(=O)c2ccc(C(C)(C)C)cc2)c(C)c1S(=O)(=O)N1CCCCCC1,,inactive: -4.86%
O=C(Nc1ccccc1N1CCCC1)c1ccc(Cl)c(S(=O)(=O)N2CCOCC2)c1,active: 14.6 µM,
Cc1cccc(NC(=O)c2cccc(S(=O)(=O)Nc3c(C)n(C)n(-c4ccccc4)c3=O)c2)c1,active: 14.6 µM,
CCCc1nnc(NC(=O)c2c(O)c3cccc4c3n(c2=O)CC4)s1,"inconclusive: 5.17 µM [cytotoxic, full curve, poor fit]",
O=C(COc1ccccc1)N1CCN(c2nnc(-c3ccccc3)c3ccccc23)CC1,active: 4.11 µM,
COc1ccccc1-c1nc(SCC(=O)NCc2ccc(C)cc2)c2c(=O)n(C)c(=O)n(C)c2n1,"inconclusive: 29.1 µM [rising, single point]",
Cc1cccc(OCc2nnc(SCC(=O)O)n2-c2ccccc2)c1,,inactive: -6.48%
CC(=O)c1cccc(NC(=S)NC(=O)c2cncc(Br)c2)c1,"inconclusive: 29.1 µM [cytotoxic, single point]",

# Three successive records already listed, quoted:
SMILES,Potency,"activity change, negative = cytotoxicity"
COc1ccc(NC(=O)CCCNC(=O)c2ccc(Cl)cc2)cc1OC,"inconclusive: 8.2 µM [rising, partial curve]",
Cc1cc(C)c(NC(=O)COC(=O)c2cccc3c2C(=O)c2ccccc2C3=O)c(C)c1,"inconclusive: 14.6 µM [cytotoxic, partial curve, poor fit]",
Cc1cccc(C(=O)NNC(=O)C23CC4CC(CC(C4)C2)C3)c1O,"inconclusive: 9.2 µM [cytotoxic, partial curve]",

# — PubChem BioAssay AID1347076 (National Center for Advancing Translational Sciences (NCATS), 2019)
